Measurements taken from publication PMC10844685.
These are yes or no findings as the source states them, for the method shown. Binding seen in cells or lysates may run through a third protein. Some results given as binding are weak or reduced against the parent protein; the word gives no strength.

Target: T1, Di George syndrome critical region gene 8 (DGCR8) (human (endogenous in TNBC cell lines)) (UniProt Q8WYQ5)
T1 sequence: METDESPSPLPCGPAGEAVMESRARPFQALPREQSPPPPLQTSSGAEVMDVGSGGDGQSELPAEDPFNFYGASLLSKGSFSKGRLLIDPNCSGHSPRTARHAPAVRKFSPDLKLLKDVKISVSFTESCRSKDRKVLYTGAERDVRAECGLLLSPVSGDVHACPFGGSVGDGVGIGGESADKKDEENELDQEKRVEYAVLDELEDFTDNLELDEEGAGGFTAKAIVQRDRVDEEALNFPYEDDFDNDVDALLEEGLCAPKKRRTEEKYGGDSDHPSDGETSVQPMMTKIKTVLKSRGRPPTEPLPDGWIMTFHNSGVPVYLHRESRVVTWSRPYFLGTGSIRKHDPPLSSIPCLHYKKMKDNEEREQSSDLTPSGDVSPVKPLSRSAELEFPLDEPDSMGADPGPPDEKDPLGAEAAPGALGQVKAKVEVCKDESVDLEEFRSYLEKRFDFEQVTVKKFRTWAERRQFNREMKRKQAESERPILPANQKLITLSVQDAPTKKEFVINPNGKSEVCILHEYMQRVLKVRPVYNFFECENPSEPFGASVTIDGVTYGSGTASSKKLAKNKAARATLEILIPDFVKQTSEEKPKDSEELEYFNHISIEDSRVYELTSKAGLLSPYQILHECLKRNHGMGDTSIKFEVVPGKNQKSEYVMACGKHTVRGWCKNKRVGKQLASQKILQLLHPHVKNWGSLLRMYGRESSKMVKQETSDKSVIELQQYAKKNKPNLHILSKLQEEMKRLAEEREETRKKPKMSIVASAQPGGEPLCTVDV
Experiment: co-IP; cells lysed in RIPA buffer with protease inhibitor; 3 ug antibody overnight at 4 C; protein A/G PLUS-agarose 4 h; western blot; with and without ribonuclease treatment; control or METTL14-overexpressing cells

B1: methyltransferase-like protein 14 (METTL14) (protein, UniProt Q9HCE5 1-456)
chain: MDSRLQEIRERQKLRRQLLAQQLGAESADSIGAVLNSKDEQREIAETRETCRASYDTSAPNAKRKYLDEGETDEDKMEEYKDELEMQQDEENLPYEEEIYKDSSTFLKGTQSLNPHNDYCQHFVDTGHRPQNFIRDVGLADRFEEYPKLRELIRLKDELIAKSNTPPMYLQADIEAFDIRELTPKFDVILLEPPLEEYYRETGITANEKCWTWDDIMKLEIDEIAAPRSFIFLWCGSGEGLDLGRVCLRKWGYRRCEDICWIKTNKNNPGKTKTLDPKAVFQRTKEHCLMGIKGTVKRSTDGDFIHANVDIDLIITEEPEIGNIEKPVEIFHIIEHFCLGRRRLHLFGRDSTIRPGWLTVGPTLTNSNYNAETYASYFSAPNSYLTGCTEEIERLRPKSPPPKSKSDRGGGAPRGGGRGGTSAGRGRERNRSNFRGERGGFRGGRGGAHRGGFPPR
**Q.** Which binding does the source give for B1 here?
**A.** The binding was “binds”.
